The test concerns the target T1, RYBP Q60H, co-expressed with RING1B and PCGF4 (human) (UniProt Q8N488).
T1 sequence: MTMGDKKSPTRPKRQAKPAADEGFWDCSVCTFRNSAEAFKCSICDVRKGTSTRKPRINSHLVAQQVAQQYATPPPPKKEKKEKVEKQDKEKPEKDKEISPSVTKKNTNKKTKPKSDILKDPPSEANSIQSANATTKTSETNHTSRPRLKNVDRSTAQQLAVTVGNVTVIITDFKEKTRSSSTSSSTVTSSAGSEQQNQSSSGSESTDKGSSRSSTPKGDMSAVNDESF
As to the kind of experiment: pull-down.

These are yes or no findings as the source states them, for the method shown. In cells and extracts the contact can be indirect.

Drawing on doi:10.1101/2023.10.23.563594 (bioRxiv, 2023), this text covers binding for 2 molecules.

B1: Polycomb group ring-finger subunit PCGF4, full-length, co-expressed in the vPRC1.4 complex (natural protein)
chain: MHRTTRIKITELNPHLMCVLCGGYFIDATTIIECLHSFCKTCIVRYLETSKYCPICDVQVHKTRPLLNIRSDKTLQDIVYKLVPGLFKNEMKRRRDFYAAHPSADAANGSNEDRGEVADEDKRIITDDEIISLSIEFFDQNRLDRKVNKDKEKSKEEVNDKRYLRCPAAMTVMHLRKFLRSKMDIPNTFQIDVMYEEEPLKDYYTLMDIAYIYTWRRNGPLPLKYRVRPTCKRMKISHQRDGLTNAGELESDSGSDKANSPAGGIPSTSSCLPSPSTPVQSPHPQFPHISSTMNGTSNSPSGNHQSSFANRPRKSSVNGSSATSSG
For B1, the binding entry is on record as “no binding”.

B2: E3 ubiquitin ligase subunit RING1B, full-length, co-expressed in the vPRC1.4 complex (natural protein)
chain: MSQAVQTNGTQPLSKTWELSLYELQRTPQEAITDGLEIVVSPRSLHSELMCPICLDMLKNTMTTKECLHRFCADCIITALRSGNKECPTCRKKLVSKRSLRPDPNFDALISKIYPSRDEYEAHQERVLARINKHNNQQALSHSIEEGLKIQAMNRLQRGKKQQIENGSGAEDNGDSSHCSNASTHSNQEAGPSNKRTKTSDDSGLELDNNNAAMAIDPVMDGASEIELVFRPHPTLMEKDDSAQTRYIKTSGNATVDHLSKYLAVRLALEELRSKGESNQMNLDTASEKQYTIYIATASGQFTVLNGSFSLELVSEKYWKVNKPMELYYAPTKEHK
Turning to B2, the binding entry was “no binding”.
